Measurements taken from patent US12065692B2, “Optical super-multiplexing by polyynes” (The Trustees of Columbia University in the City of New York, priority 2017, dated 2024).

Test: SRS microscopy detection sensitivity

OCc1ccc(C#CC#CC#CC#Cc2ccccc2)cc1 [Carbow 4-yne]
sensitivity relative to previous SRS detection of a single alkyne tag: ~500 times
SRS detection sensitivity (signal-to-noise ratio of 1, 1-ms time constant): 630 nM
